These are literature values, as cited in PMC9224751 (International Journal of Molecular Sciences, 2022).

pIC50: −log10 of the molar value. Like-named read-outs stand apart in the source and are kept apart here.

One may read the pIC50 as −log10 of the IC50, conventionally taken in molar units.

Data set [1] concerns SARS-CoV-2. Particulars: Vero E6 cells; published; cited from earlier work.
In data set [2] the test system is SARS-CoV-2. The settings on record: Calu-3; published; cited from earlier work.

`CCC(CC)COC(=O)[C@H](C)N[P@](=O)(OC[C@H]1O[C@@](C#N)(c2ccc3c(N)ncnn23)[C@H](O)[C@@H]1O)Oc1ccccc1` [Remdesivir]: the pIC50 with SARS-CoV-2 [1] is 5.83; in the data set with SARS-CoV-2 [2], 6.22.
